Experimental data taken from the supplement of paper PMC9015667.
Where a name gives a salt, the structure may show the parent alone. ± gives the standard deviation of the averaged measurements. The list shows a part of the results. Most values come without repeats; read them as rough.

Experiments:
Assay in all cases: reduction in cell viability relative to untreated/vehicle; higher = more growth inhibition
Details in all cases: 200 nM; 72 h
[1] = system: M229P (parental melanoma line)
[2] = system: M229R (matched melanoma line resistant to BRAF inhibitors)
[3] = system: M238P (parental melanoma line)
[4] = system: M238R (matched melanoma line resistant to BRAF inhibitors)
[5] = system: M249P (parental melanoma line)
[6] = system: M249R (matched melanoma line resistant to BRAF inhibitors)
[7] = system: UACC62P (parental melanoma line)
[8] = system: UACC62R (matched melanoma line resistant to BRAF inhibitors)

Measured: reduction in cell viability

N.N.[Cl][Pt][Cl] [Cisplatin]
< 0%: [1] | [2] | [3] | [4] | [5] | [6] | [7] | [8]

CSCC[C@H](NC(=O)[C@H](Cc1ccccc1)NC(=O)CNC(=O)CNC(=O)[C@@H](N)Cc1ccc(O)cc1)C(=O)O [Metenkephalin]
< 0%: [1] | [2] | [3] | [4] | [5] | [6] | [7] | [8]

COc1ccc(C(=O)c2c(C)n(CCN3CCOCC3)c3cc(I)ccc23)cc1
< 0%: [1] | [3] | [4] | [5] | [6] | [7] | [8]
2.01%: [2]

CC(NC(C)(C)C)C(=O)c1cccc(Cl)c1 (stereo not drawn) [Bupropion hydrochloride]
< 0%: [1] | [2] | [3] | [4] | [5] | [6] | [7] | [8]

N=c1c2c(-c3ccccc3)c(-c3ccccc3)n(Cc3ccccc3)c2ncn1C1CCC(O)CC1 (stereo not drawn)
56.6%: [8]
13.4%: [1]
3.77%: [5]
< 0%: [4]
28.6%: [2]
25.5%: [3]
13.5%: [7]
7.58%: [6]

O=P1(NCCCl)OCCCN1CCCl (stereo not drawn) [Ifomide]
< 0%: [1] | [2] | [3] | [4] | [5] | [6] | [7] | [8]

C/C=C(/C)C(=O)O[C@H]1C(C)=C2[C@H]([C@@H]1OC(=O)CCCCCCC)[C@@](C)(OC(C)=O)C[C@H](OC(=O)CCC)[C@@]1(O)[C@H]2OC(=O)[C@@]1(C)O [Thapsigargin]
59.26 ± 0.099%: [1]
74.5 ± 7.1%: [8]
22.4 ± 0.69%: [5]
66.8 ± 3.5%: [2]
54.8 ± 1.9%: [4]
62.2 ± 4.7%: [6]
79.84 ± 0.43%: [3]
33.3 ± 11%: [7]

C[C@]12Cc3c[nH]nc3C[C@@H]1CC[C@@H]1[C@@H]2CC[C@@]2(C)[C@H]1CC[C@]2(C)O [Stanozolol]
< 0%: [1] | [2] | [3] | [4] | [5] | [6] | [7] | [8]

O=C(O)C(=O)c1cn(Cc2ccccc2)c2ccc(-c3ccc(OC(F)(F)F)cc3)cc12 [Tiplasinin]
< 0%: [1] | [2] | [3] | [4] | [5] | [6] | [8]
8.07%: [7]

C[C@@H]1C[C@@H]([C@H](O)CC2CC(=O)NC(=O)C2)C(=O)[C@@H](C)C1 [cycloheximide]
< 0%: [1] | [2] | [3] | [4] | [5] | [6] | [8]
3.92%: [7]

O=c1[nH]c2ccccc2n1C1CCN(Cc2ccc(-c3[nH]c4cc5ncnc5cc4nc3-c3ccccc3)cc2)CC1 [AKT inhibitor VIII]
< 0%: [1] | [2] | [3] | [4] | [5] | [6] | [7] | [8]

COC(=O)C1=CCCN(C)C1 [Arecoline]
< 0%: [1] | [2] | [3] | [4] | [5] | [6] | [7] | [8]

CC(C)(O)C(=O)Nc1ccc([N+](=O)[O-])c(C(F)(F)F)c1 [Hydroxyflutamide]
1.29%: [7]
< 0%: [1] | [2] | [3] | [4] | [5] | [6] | [8]

CCN(C)C(=O)Oc1cccc([C@H](C)N(C)C)c1 [Rivastigmine tartrate]
< 0%: [1] | [2] | [3] | [4] | [5] | [6] | [7] | [8]

CC(C)c1cccc(C(C)C)c1O [Propofol]
< 0%: [1] | [2] | [3] | [4] | [5] | [6] | [7] | [8]

COc1cc2c(c(OC)c1OC)-c1ccc(OC)c(=O)cc1[C@@H](NC(C)=O)CC2 [Colchicine]
62.3%: [5]
63.5%: [3]
72.6%: [4]
55.4%: [7]
75.3%: [8]
41.3%: [1]
58.6%: [6]
50.7%: [2]

C#C[C@]1(O)CC[C@H]2[C@@H]3CCC4=CC(=O)CC[C@]4(C)[C@H]3CC[C@@]21C [Ethisterone]
0.12%: [7]
< 0%: [1] | [2] | [3] | [4] | [5] | [6] | [8]

C[C@@H]1O[C@@H](O[C@H]2C[C@@H](O)[C@]3(CO)[C@H]4[C@H](O)C[C@]5(C)[C@@H](C6=CC(=O)OC6)CC[C@]5(O)[C@@H]4CC[C@]3(O)C2)[C@H](O)[C@H](O)[C@H]1O [G-Strophanthin]
72%: [3]
82.1%: [4]
86.3%: [6]
74%: [1]
83.6%: [2]
78%: [5]
63.9%: [8]
73%: [7]

CC[C@@H](C(=O)[C@@H](C)[C@@H](O)[C@H](C)[C@@H]1O[C@@H]([C@@H](CC)C(=O)O)CC[C@@H]1C)[C@H]1O[C@]2(C=C[C@@H](O)[C@]3(CC[C@@](C)([C@H]4CC[C@](O)(CC)[C@H](C)O4)O3)O2)[C@H](C)C[C@@H]1C [Salinomycin]
< 0%: [1] | [2] | [3] | [4] | [5] | [6] | [7] | [8]

C[C@]12CCC(=O)C(O)=C1CC[C@@H]1[C@@H]2CC[C@]2(C)C(=O)CC[C@@H]12 [4-Hydroxyandrostenedione]
< 0%: [1] | [2] | [3] | [4] | [5] | [6] | [7] | [8]

C[C@]12CC[C@H]3[C@@H](CCC4=CC(=O)CC[C@@]43C)[C@@H]1CC[C@@H]2OC(=O)CCC1CCCC1 [Testosterone cypionate]
< 0%: [1] | [2] | [3] | [4] | [5] | [6] | [7] | [8]

CCCN1CCOC2c3cc(O)ccc3OCC21 (stereo not drawn)
0.83%: [2]
< 0%: [1] | [3] | [4] | [5] | [6] | [7] | [8]

CC(C)[C@]12O[C@H]1[C@@H]1O[C@]13[C@]1(O[C@H]1C[C@H]1C4=C(CC[C@@]13C)C(=O)OC4)[C@@H]2O [Triptolide]
74.7%: [8]
80.8%: [1]
70.2%: [2]
91.4%: [5]
72.9%: [4]
86.5%: [7]
89.3%: [6]
86.1%: [3]

CC1(N2CCC(n3c([C@@H]4CCCNC4)nc4ccccc43)CC2)CCCCCCC1
< 0%: [2] | [3] | [4] | [5] | [8]
17.5%: [6]
3.02%: [1]
3.93%: [7]

CCOP(=O)(OCC)C(C)NC(=O)N(CCCl)N=O (stereo not drawn) [Fotemustine]
10.8%: [7]
< 0%: [1] | [2] | [3] | [4] | [5] | [6] | [8]

CCCC[N+]1(C)[C@@H]2C[C@@H](OC(=O)[C@H](CO)c3ccccc3)C[C@H]1[C@@H]1O[C@@H]12 (stereo partly drawn) [Butylscopolamine bromide]
< 0%: [1] | [2] | [3] | [4] | [5] | [6] | [7] | [8]

O=C(Oc1ccc([N+](=O)[O-])cc1)N1CCN(Cc2cccc(Oc3ccccc3)c2)CC1
3.64%: [7]
2.43%: [6]
< 0%: [1] | [2] | [3] | [4] | [5] | [8]

C#C[C@]1(O)C=C[C@H]2[C@@H]3CCC4=CC(=O)CC[C@@H]4[C@H]3CC[C@@]21CC [Gestodene]
< 0%: [1] | [2] | [3] | [4] | [5] | [6] | [8]
3.23%: [7]

COc1ccc2c(c1)[C@]13CCCC[C@@H]1[C@H](C2)N(C)CC3 [Dextromethorphan hydrobromide]
< 0%: [1] | [3] | [4] | [5] | [6] | [7] | [8]
0.55%: [2]

CC[C@@H]1[C@@H](C)O[C@@](O)([C@@H](C)[C@H](O)[C@H](C)[C@H]2OC(=O)/C=C/C=C/[C@H](C)[C@@H]([C@@H](C)[C@@H](O)[C@H](C)[C@@]3(O)C[C@@H](O[C@H]4C[C@H](O)[C@H](O)[C@H](C)O4)[C@H](CC)[C@@H](C)O3)OC(=O)/C=C/C=C/[C@@H]2C)C[C@H]1O[C@H]1C[C@H](O)[C@H](O)[C@H](C)O1 [Azalomycin-B]
88.9%: [6]
89.3%: [4]
91.3%: [8]
88.5%: [2]
88.6%: [1]
83.8%: [5]
94.7%: [7]
84.1%: [3]

O=C(Oc1ccc([N+](=O)[O-])cc1)N1CCC(C(O)(c2ccc3c(c2)OCO3)c2ccc3c(c2)OCO3)CC1
< 0%: [1] | [2] | [3] | [4] | [5] | [6] | [7] | [8]

O=[N+]([O-])c1ncc[nH]1 [Azomycin]
< 0%: [1] | [2] | [3] | [4] | [5] | [6] | [7] | [8]

CN[C@@H]1Cc2cccc3[nH]c(=O)n(c23)C1 [Sumanirole maleate]
< 0%: [1] | [2] | [3] | [4] | [5] | [6] | [8]
2.87%: [7]

CC(=O)OCC1=C(C(=O)O)N2C(=O)[C@@H](N)[C@H]2SC1 [7-Aminocephalosporanic acid]
< 0%: [1] | [2] | [3] | [4] | [5] | [6] | [7] | [8]

Cc1cccc(C)c1NC(=O)CN1CCCC1=O [Nefiracetam]
< 0%: [1] | [2] | [3] | [4] | [5] | [6] | [7] | [8]

COc1ccc(C(=O)c2c(C)n(CCN3CCOCC3)c3ccccc23)cc1 [Pravadoline]
< 0%: [1] | [2] | [3] | [4] | [5] | [6] | [7] | [8]

O=C(O)CCCc1ccc(N(CCCl)CCCl)cc1 [Chlorambucil]
< 0%: [1] | [2] | [3] | [4] | [5] | [6] | [7] | [8]

CN1CCN(c2ccc([N+](=O)[O-])c3no[n+]([O-])c23)CC1
< 0%: [1] | [2] | [3] | [4] | [5] | [6] | [7] | [8]

CC(O)(CS(=O)(=O)c1ccc(F)cc1)C(=O)Nc1ccc(C#N)c(C(F)(F)F)c1 (stereo not drawn) [Bicalutamide]
< 0%: [1] | [2] | [3] | [4] | [5] | [6] | [7] | [8]

C[C@@H]1O[C@@H](O[C@@H]2C=C3CC[C@@H]4[C@H](CC[C@]5(C)[C@@H](c6ccc(=O)oc6)CC[C@]45O)[C@@]3(C)CC2)[C@H](O)[C@H](O)[C@H]1O [Proscillaridin]
78.7%: [2]
98.2%: [7]
75%: [3]
77.9%: [8]
70.1%: [5]
77.5%: [1]
94.8%: [6]
84.1%: [4]

O=C(O[C@H]1C[C@H]2CC[C@@H](C1)[N+]21CCCC1)C(O)(c1ccccc1)c1ccccc1 [Trospium chloride]
< 0%: [1] | [2] | [3] | [4] | [5] | [6] | [7] | [8]
